The values that follow come from publication PMC5680560.

Amino acid sequences for entries named in this document (tags omitted).
UniProt O15524: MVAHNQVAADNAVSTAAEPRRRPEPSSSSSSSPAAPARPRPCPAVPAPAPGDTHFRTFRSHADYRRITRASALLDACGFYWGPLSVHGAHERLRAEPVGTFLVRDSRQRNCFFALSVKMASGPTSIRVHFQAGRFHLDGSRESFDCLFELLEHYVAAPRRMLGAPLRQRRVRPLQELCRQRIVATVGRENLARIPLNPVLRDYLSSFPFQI
UniProt Q13263: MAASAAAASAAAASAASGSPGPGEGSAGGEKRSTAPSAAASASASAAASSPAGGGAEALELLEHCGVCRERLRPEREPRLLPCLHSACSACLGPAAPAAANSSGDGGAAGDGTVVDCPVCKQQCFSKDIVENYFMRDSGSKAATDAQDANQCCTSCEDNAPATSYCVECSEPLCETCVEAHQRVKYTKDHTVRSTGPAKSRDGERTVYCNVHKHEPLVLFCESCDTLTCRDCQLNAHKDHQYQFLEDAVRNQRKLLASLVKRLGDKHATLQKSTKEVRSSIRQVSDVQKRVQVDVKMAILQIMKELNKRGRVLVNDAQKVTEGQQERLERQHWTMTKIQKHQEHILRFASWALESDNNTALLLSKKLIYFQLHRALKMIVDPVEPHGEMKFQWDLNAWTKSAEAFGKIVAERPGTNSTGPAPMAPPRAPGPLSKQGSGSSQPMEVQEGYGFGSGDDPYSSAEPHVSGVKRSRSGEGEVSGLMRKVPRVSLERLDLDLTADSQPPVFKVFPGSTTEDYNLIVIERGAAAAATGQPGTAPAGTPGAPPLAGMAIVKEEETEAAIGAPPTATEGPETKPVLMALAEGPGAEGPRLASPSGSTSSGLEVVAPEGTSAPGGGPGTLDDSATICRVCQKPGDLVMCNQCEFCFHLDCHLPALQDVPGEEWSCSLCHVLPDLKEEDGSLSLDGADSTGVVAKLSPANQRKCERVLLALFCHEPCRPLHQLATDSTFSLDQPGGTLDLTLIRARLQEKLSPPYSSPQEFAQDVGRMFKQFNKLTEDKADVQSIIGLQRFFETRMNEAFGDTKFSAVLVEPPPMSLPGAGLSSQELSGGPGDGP

These are yes or no findings as the source states them, for the method shown. In cells and extracts the contact can be indirect. Some results given as binding are weak or reduced against the parent protein; the word gives no strength.

Test [1] concerns the target SOCS1 (wild type, expressed in U2OS cells) (UniProt O15524). Nature of the test: co-IP; U2OS lysates (empty vector or SOCS1 overexpressing), 2 mg extract; IP with anti-KAP1 or, reciprocally, anti-SOCS1 or a control antibody overnight at 4°C, Protein A Sepharose; Cell Lysis Buffer (20 mM Tris-HCl pH 7.5, 150 mM NaCl, 1% Triton X-100); Western blots for KAP1 and SOCS1. In general terms: In western blotting, separated proteins are transferred to a membrane and probed.

For test [2], the target named is KAP1 (endogenous, U2OS cells) (human (endogenous in U2OS)) (UniProt Q13263). Described as above.

Consider “KAP1 (endogenous, U2OS cells) (from UniProt Q13263 1-835)”, for which the binding entry in test [1] is on record as “binds”. On to “SOCS1 (wild type, expressed in U2OS cells) (from UniProt O15524 1-211)”, for which the binding entry in test [2] is listed as “binds”.
